The record followed here is patent publication US20110152352.

Chains of the proteins cited; added tags and fusions are not shown. Lines headed by an entry give the natural chain unless they say otherwise; changes in a name come on top. A line that says so, or that is headed by a name, gives the form on record, which may keep a tag or linker. Residues count along the entry.
UniProt P17844: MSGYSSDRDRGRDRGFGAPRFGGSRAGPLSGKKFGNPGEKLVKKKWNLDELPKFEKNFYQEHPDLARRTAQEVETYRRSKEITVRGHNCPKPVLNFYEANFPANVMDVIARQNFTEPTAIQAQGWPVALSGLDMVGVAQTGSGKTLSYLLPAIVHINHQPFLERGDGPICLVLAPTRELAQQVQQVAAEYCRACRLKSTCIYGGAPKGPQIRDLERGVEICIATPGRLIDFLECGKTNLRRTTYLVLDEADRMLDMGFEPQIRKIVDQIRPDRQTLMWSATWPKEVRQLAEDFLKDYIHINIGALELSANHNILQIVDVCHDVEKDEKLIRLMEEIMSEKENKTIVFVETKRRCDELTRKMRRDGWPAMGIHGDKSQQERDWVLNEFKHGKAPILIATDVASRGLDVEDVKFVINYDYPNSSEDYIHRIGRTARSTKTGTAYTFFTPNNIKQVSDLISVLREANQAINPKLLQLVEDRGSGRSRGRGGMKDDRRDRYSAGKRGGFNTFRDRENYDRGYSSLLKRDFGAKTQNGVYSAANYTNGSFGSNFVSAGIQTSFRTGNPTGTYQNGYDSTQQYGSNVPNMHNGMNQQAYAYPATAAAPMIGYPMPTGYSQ
UniProt Q8WYQ5: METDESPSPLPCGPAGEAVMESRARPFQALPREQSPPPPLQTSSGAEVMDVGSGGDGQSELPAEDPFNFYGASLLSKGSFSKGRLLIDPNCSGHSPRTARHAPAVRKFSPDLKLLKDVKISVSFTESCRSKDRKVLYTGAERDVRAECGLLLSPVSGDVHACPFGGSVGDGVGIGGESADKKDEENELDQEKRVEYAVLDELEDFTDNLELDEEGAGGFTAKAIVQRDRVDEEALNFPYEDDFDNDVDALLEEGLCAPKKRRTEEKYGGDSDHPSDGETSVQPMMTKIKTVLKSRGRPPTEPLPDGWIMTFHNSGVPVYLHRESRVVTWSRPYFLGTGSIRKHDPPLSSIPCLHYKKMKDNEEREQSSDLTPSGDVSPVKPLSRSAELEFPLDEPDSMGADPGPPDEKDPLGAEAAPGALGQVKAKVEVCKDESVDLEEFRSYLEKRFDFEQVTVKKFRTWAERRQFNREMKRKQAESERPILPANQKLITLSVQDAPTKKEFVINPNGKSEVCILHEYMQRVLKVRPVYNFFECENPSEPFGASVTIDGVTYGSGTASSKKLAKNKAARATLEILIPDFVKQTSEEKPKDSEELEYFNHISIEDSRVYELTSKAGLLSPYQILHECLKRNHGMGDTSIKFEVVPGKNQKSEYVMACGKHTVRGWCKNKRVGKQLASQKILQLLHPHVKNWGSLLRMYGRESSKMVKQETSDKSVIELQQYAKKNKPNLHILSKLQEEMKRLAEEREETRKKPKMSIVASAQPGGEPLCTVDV
UniProt Q15797, 1-219: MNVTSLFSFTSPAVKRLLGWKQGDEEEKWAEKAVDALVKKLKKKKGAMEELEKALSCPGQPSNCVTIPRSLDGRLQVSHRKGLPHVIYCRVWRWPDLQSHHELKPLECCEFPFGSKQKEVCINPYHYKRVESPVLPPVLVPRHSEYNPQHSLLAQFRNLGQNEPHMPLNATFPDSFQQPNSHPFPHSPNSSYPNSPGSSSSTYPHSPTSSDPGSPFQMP
UniProt P84022: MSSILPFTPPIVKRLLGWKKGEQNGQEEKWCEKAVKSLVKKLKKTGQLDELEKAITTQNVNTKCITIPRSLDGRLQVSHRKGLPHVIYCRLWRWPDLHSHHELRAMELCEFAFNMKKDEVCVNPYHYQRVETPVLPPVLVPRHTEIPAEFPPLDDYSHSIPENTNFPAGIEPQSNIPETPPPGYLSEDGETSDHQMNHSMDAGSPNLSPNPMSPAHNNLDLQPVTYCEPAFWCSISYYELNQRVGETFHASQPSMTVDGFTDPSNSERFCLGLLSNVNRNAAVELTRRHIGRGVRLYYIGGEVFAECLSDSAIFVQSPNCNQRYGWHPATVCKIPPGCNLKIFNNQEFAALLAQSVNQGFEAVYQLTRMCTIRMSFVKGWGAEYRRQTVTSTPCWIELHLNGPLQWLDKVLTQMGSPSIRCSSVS
UniProt Q15796, whole entry: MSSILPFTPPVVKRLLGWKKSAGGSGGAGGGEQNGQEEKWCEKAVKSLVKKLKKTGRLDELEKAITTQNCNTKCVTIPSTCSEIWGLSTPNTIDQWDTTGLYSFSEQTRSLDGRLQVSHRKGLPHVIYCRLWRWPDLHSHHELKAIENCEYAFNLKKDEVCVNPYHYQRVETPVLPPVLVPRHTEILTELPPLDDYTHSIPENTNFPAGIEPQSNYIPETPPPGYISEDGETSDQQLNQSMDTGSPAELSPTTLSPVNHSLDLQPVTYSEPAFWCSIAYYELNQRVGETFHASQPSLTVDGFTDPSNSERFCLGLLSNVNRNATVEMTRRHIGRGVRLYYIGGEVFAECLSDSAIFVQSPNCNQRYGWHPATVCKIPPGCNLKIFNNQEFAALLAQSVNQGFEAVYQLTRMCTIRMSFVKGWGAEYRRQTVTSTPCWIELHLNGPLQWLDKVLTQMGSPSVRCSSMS
Smad2/Smad3 endogenous (Homo sapiens), one chain, as listed by the source, chain 1 of 2: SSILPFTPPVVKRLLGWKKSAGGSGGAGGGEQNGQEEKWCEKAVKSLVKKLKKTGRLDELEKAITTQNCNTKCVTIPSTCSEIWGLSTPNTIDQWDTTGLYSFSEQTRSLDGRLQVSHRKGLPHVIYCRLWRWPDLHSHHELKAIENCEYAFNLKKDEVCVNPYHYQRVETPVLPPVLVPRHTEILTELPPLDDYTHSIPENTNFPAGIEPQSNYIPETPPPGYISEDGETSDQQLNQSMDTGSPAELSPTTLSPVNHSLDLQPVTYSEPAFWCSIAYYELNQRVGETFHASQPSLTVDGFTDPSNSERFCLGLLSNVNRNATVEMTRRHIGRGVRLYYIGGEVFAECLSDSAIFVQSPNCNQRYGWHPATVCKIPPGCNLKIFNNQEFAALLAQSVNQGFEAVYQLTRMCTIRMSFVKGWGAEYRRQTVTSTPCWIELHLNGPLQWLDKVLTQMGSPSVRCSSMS
Smad2/Smad3 endogenous (Homo sapiens), one chain, as listed by the source, chain 2 of 2: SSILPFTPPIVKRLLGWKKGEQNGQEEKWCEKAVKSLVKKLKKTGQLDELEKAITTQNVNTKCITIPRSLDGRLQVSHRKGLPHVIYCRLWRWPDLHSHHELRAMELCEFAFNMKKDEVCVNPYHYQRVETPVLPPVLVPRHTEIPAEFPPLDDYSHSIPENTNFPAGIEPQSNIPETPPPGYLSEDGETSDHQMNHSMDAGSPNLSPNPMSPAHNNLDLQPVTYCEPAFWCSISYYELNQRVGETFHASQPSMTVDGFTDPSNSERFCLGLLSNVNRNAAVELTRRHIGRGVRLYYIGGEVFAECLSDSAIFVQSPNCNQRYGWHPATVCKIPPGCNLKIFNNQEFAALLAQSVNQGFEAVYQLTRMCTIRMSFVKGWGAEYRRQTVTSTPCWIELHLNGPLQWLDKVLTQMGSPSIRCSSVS
Smad1/Smad5 endogenous (Homo sapiens), one chain, as listed by the source, chain 2 of 2: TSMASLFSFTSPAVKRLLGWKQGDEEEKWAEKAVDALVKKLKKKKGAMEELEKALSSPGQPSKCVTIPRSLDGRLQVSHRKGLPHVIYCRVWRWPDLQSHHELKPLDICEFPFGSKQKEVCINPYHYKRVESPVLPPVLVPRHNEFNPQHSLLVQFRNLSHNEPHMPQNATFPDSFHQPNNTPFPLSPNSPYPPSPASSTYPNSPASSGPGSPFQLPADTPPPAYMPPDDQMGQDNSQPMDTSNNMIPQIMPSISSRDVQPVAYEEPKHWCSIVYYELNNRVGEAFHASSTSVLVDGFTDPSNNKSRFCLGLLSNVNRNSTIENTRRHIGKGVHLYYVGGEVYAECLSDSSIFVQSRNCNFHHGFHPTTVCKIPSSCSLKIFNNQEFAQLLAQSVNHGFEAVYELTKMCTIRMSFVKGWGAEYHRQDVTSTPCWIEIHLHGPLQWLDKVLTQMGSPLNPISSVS
Smad1/Smad5 endogenous (Homo sapiens), one chain, as listed by the source, chain 1 of 2: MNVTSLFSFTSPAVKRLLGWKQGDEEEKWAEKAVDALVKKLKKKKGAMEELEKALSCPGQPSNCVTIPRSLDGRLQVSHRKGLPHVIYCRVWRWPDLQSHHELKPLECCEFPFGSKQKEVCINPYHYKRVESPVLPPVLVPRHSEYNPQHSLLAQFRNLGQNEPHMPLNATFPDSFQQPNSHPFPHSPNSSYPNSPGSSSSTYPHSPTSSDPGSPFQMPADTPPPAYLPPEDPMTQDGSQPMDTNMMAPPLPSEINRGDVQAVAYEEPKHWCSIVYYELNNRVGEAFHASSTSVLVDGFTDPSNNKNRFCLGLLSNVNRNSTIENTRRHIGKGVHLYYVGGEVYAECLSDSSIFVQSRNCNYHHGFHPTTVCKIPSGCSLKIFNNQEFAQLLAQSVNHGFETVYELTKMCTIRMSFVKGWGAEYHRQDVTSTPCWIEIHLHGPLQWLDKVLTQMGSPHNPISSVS

For part of these data: A weaker result is weaker than the reference pair of the same experiment. For part of these data: Results from cells or extracts need not show a direct contact. For part of these data: A negative result means that nothing was seen under these conditions. For part of these data: Tags and fusion partners may be left off the protein sequences shown. For part of these data: For at least one entry, the source does not settle the construct or the ends of the probe.

Data set [1] has as its system Smad2/Smad3 endogenous (Homo sapiens). The experiment in a line: binding assay. The note with it: RNA-ChIP, protein in cells, protein details: PASMC.
The target in data set [2] is p68 (DDX5) endogenous (Homo sapiens) (UniProt P17844). Nature of the data set: binding assay. The note with it: RNA-ChIP, constitutive; protein in cells; protein details: PASMC.
Data set [3] deals with T1, Drosha endogenous (Homo sapiens) (UniProt Q9NRR4).
T1 sequence (looked up, limits assumed): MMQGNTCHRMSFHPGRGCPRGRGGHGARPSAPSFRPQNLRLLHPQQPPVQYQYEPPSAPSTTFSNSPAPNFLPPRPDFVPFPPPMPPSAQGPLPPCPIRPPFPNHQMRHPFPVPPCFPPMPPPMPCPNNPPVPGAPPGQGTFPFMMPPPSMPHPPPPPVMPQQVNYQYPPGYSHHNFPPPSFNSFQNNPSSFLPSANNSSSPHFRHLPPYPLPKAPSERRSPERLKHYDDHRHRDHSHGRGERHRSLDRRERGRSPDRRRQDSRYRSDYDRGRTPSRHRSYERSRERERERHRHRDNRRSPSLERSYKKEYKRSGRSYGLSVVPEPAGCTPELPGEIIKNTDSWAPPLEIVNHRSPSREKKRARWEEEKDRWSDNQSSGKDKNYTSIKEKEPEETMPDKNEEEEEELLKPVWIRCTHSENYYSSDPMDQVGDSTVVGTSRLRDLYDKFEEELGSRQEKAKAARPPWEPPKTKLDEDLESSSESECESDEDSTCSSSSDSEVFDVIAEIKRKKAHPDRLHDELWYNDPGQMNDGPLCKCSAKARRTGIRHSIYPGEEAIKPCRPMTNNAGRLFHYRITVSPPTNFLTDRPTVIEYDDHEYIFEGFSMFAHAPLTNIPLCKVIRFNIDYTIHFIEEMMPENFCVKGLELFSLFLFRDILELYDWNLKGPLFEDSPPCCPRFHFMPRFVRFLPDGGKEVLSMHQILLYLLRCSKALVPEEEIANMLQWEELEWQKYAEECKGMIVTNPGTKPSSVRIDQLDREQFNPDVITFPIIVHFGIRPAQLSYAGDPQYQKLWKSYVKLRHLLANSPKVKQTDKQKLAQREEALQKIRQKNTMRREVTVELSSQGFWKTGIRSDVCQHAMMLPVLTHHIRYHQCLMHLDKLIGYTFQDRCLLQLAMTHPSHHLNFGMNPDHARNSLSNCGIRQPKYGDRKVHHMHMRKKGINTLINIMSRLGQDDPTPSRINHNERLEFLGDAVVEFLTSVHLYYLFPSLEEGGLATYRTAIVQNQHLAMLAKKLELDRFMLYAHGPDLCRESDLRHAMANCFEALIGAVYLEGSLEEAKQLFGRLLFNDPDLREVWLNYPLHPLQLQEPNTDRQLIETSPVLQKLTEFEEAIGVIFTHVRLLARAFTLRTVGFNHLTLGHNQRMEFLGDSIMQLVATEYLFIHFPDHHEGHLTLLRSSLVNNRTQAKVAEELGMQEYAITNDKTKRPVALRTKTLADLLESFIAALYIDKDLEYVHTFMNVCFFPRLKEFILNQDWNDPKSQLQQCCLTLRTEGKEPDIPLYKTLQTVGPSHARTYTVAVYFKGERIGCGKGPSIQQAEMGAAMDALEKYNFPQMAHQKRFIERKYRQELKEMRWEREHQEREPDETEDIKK
The experiment in a line: binding assay. The settings on record: RNA-ChIP, protein in cells, protein details: PASMC.

The subject of data set [4] is Smad1/Smad5 endogenous (Homo sapiens). The experiment in a line: binding assay. The note with it: RNA-ChIP, protein in cells, protein details: PASMC.
The target in data set [5] is DGCR8 endogenous (Homo sapiens) (UniProt Q8WYQ5). The experiment in a line: binding assay. The note with it: RNA-IP, BMP4; protein in cells; protein details: PASMC.
For data set [6], the system named is Smad1 (nuclear extract). Nature of the data set: competition with a labelled probe. The note with it: competes for Smad1 binding to pri-miR-21, 3-30 fold excess; protein in an extract; protein details: Cos7 nuclear extract, BMP4 treated.
Data set [7] concerns the target Smad1 MH1 domain (UniProt Q15797). Nature of the data set: pull-down. The settings on record: dramatic decrease; purified recombinant protein; protein details: GST fusion, E. coli.
In data set [8] the target is T2, Drosha (Homo sapiens) (UniProt Q9NRR4).
T2 sequence (looked up, limits assumed): T1 sequence (looked up, limits assumed)
The experiment in a line: binding assay. The note with it: RNA-IP, protein in cells, protein details: Flag, Cos7.

Data set [9] concerns the target Smad1 (UniProt Q15797). The experiment in a line: binding assay. The settings on record: RNA-IP, BMP4; protein in cells; protein details: Flag, Cos7.
Data set [10] concerns the target DGCR8 (UniProt Q8WYQ5). Nature of the data set: binding assay. The settings on record: RNA-IP, protein in cells, protein details: Flag, Cos7.
For data set [11], the system named is p68 (DDX5). The experiment in a line: pull-down. The settings on record: protein in an extract, protein details: Cos7 nuclear extract, BMP4 treated.
In data set [12] the test system is Smad1 (nuclear extract). The experiment in a line: pull-down. The settings on record: protein in an extract, protein details: Cos7 nuclear extract, BMP4 treated.
Data set [13] deals with Smad3 (UniProt P84022). The experiment in a line: binding assay. The note with it: RNA-ChIP; induced by TGFb, not BMP4; protein in cells; protein details: Flag, Cos7.
For data set [14], the target named is Smad2 (UniProt Q15796). Nature of the data set: binding assay. The note with it: RNA-ChIP; induced by TGFb, not BMP4; protein in cells; protein details: Flag, Cos7.

On to “GCCAACCCAGUGUUCAGACUACCUGUUCAGGAGGCUCUCAAUGUGUACAGUAGUCUGCACAUUGGUUAGGC [pri-miR-199a]”, for which the binding result in [1] (TGFb), in data set [2], in [3] (ligand enhanced), in [4] (BMP4) and in data set [5] was “binds” in each case.

In the case of “GGCCUGGCUGGACAGAGUUGUCAUGUGUCUGCCUGUCUACACUUGCUGUGCAGAACAUCCGCUCACCUGUACAGCAGGCACAGACAGGCAGUCACAUGACAACCCAGCCU [pri-miR-214]”, the binding result in data set [1] is recorded as “no binding”; in data set [2], “binds”; in [3] (constitutive) it was “binds”; in data set [4], “no binding”.

Consider “GTATCAGATCTGTGAA (double strand) [SBE1 DNA duplex]”, for which the binding result in data set [6] was “binds”.

As to “GTATGTCTAGACTGAA (double strand) [SBE2 DNA duplex]”, the binding result in data set [6] is listed as “binds”.

As for “UGUCGGGUAGCUUAUAAAACUGAUGUUGACUGUUGAAUCUCAUGGCAACACCAGUCGAUGGGCUGUCUGACA [pri-miR-21 R-SBE M1]”, the binding result in [7], in [8] (no BMP4-dependent recruitment), in data set [9] and in data set [10] (no BMP4-dependent recruitment) was “binds more weakly” each time.

Take “UGUCGGGUAGCUUAUAAAACUGAUGUUGACUGUUGAAUCUCAUGGCAACACCAGUUUAUGGGCUGUCUGACA [pri-miR-21 R-SBE M3]”: the binding result in [11] (R-SBE not required) is recorded as “binds”; in [12] it was “no binding”.

“UGUCGGGUAGCUUAUCAGACUGAUGUUGACUGUUGAAUCUCAUGGCAACACCAGUCGAUGGGCUGUCUGACA [pri-miR-21 WT (156 nt; hairpin sequence given)]”: the binding result was “binds” in [11]; “binds” in data set [12] (immobilized RNA, immunoblot); “binds” in [8] (BMP4-dependent); “binds” in [9]; “binds” in data set [10] (BMP4-dependent).

For “UGUCGGGUAGCUUAUCAGACUGAUGUUGACUGUUGAAUCUCAUGGCAACACCAGUCGAUGGGCUGUCUGACA [pri-miR-21 from pCMV-miR-21 (480 nt; hairpin sequence given)]”, the binding result in data set [13] and in data set [14] was “binds” in each case.

For “UGUCGGGUAGCUUAUCAGACUGAUGUUGACUGUUGAAUCUCAUGGCAACACCUAACGAUGGGCUGUCUGACA [pri-miR-21 R-SBE M2]”, in data set [7], the binding result is listed as “binds more weakly”.

Consider “UGUCGGGUAGCUUAUCAGACUGAUGUUGACUGUUGACCAUCAUGGCAACACCAGUCGAUGGGCUGUCUGACA [pri-miR-21 Loop mut]”, for which the binding result in data set [11], in [12], in [8] (BMP4-dependent), in data set [9] and in data set [10] (BMP4-dependent) was “binds” each time.

In the case of “UGUCGGGUUAAUUAUCAGACUGAUGUUGACUGUUGAAUCUCAUGGCAACACCAGUCGAUGGGCUGUCUGACA [pri-miR-21 5' mut]”, the binding result in data set [11], in data set [12] and in data set [9] was “binds” in each case.
